According to article PMC9123286 (The Journal of Cell Biology, 2022):
Numbering of substitutions follows the chain as printed. Results are given in words; binding and its absence hold for the method and conditions named. Binding seen in cells or lysates may run through a third protein. These calls come from enrichment with a bait or labelling near it, and not all partners need be listed. Sequences can lack the tags named with a protein.

By UniProt entry, the sequences of proteins in these tests, tags left out.
UniProt Q01590: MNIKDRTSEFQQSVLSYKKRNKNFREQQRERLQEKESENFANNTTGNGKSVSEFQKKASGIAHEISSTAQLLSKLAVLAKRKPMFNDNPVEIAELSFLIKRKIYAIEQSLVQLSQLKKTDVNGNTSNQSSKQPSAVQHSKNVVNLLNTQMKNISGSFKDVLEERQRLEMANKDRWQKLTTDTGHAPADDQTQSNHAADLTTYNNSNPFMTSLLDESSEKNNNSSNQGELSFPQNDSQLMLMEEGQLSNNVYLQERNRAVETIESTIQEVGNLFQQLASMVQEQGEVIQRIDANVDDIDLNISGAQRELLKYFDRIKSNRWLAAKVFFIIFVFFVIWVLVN

T1: Get3 D57E F190D I193D-TEV-GFP (S. cerevisiae) (UniProt Q12154)
T1 sequence: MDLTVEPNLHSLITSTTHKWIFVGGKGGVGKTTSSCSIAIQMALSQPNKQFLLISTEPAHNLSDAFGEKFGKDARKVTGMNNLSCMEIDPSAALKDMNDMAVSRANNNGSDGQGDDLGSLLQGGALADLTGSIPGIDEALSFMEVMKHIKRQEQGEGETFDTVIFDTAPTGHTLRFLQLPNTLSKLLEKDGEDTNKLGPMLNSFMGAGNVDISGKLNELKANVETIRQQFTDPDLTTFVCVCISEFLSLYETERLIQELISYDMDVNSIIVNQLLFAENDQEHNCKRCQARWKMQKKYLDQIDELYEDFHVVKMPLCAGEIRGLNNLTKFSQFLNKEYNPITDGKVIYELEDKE

T2: Get3 D57E-TEV-GFP (S. cerevisiae, UniProt Q12154 1-354, D57E)
T2 construct: Get3, cytosolic ATPase of the GET pathway, S. cerevisiae; ATPase-impaired client trap variant D57E; Captured on anti-GFP beads and eluted by TEV cleavage; the oligomeric state in the lysate was not measured; also called Get3 DE; Get3 D57E (DE); source: yeast (BY4741 background), ectopically expressed, in lysate made without detergent; not shown: TEV site-GFP, C-terminal, kept
T2 sequence (looked up): T1 sequence with D190F, D193I

B1: N-terminally HA-tagged Erg1 (full length) (enzyme, S. cerevisiae, UniProt P32476 1-496, looked up)
chain: MSAVNVAPELINADNTITYDAIVIGAGVIGPCVATGLARKGKKVLIVERDWAMPDRIVGELMQPGGVRALRSLGMIQSINNIEAYPVTGYTVFFNGEQVDIPYPYKADIPKVEKLKDLVKDGNDKVLEDSTIHIKDYEDDERERGVAFVHGRFLNNLRNITAQEPNVTRVQGNCIEILKDEKNEVVGAKVDIDGRGKVEFKAHLTFICDGIFSRFRKELHPDHVPTVGSSFVGMSLFNAKNPAPMHGHVILGSDHMPILVYQISPEETRILCAYNSPKVPADIKSWMIKDVQPFIPKSLRPSFDEAVSQGKFRAMPNSYLPARQNDVTGMCVIGDALNMRHPLTGGGMTVGLHDVVLLIKKIGDLDFSDREKVLDELLDYHFERKSYDSVINVLSVALYSLFAADSDNLKALQKGCFKYFQRGGDCVNKPVEFLSGVLPKPLQLTRVFFAVAFYTIYLNMEERGFLGLPMALLEGIMILITAIRVFTPFLFGELIG
notes: Erg1, squalene monooxygenase, S. cerevisiae; also called HA–Erg1; source: yeast, expressed from the endogenous ERG1 promoter (genomic) or ectopically in Δget3 cells, in lysate; not shown: HA, N-terminal, kept
B2: Sgt2 (protein, UniProt Q12118 1-346)
chain: MSASKEEIAALIVNYFSSIVEKKEISEDGADSLNVAMDCISEAFGFEREAVSGILGKSEFKGQHLADILNSASRVPESNKKDDAENVEINIPEDDAETKAKAEDLKMQGNKAMANKDYELAINKYTEAIKVLPTNAIYYANRAAAHSSLKEYDQAVKDAESAISIDPSYFRGYSRLGFAKYAQGKPEEALEAYKKVLDIEGDNATEAMKRDYESAKKKVEQSLNLEKTVPEQSRDADVDASQGASAGGLPDLGSLLGGGLGGLMNNPQLMQAAQKMMSNPGAMQNIQKMMQDPSIRQMAEGFASGGGTPNLSDLMNNPALRNMAGNLFGGAGAQSTDETPDNENKQ

Legend:
[1] = biological target: T1, Get3 D57E F190D I193D-TEV-GFP (S. cerevisiae); assay: affinity purification with mass spectrometry; Get3 variant-TEV-GFP captured from yeast lysate on anti-GFP MicroBeads, no detergent, 1 h at 4°C, eluted with TEV protease; eluates analysed by LC-MS/MS, three biological replicates
Get3 D57E-TEV-GFP = biological target: T2, Get3 D57E-TEV-GFP; assay: as above

Molecule	binding [1]	binding (Get3 D57E-TEV-GFP)
Sed5 (from UniProt Q01590 1-340)	binds	binds
B1	binds	binds
B2	binds	binds
